Here are results for 2 molecules from PubChem BioAssay AID248 (DTP/NCI, 2004).

For the assay, the system named is L1210 leukemia ip in BDF1 mice, survival T/C. In words: NCI In Vivo Anticancer Drug Screen. Data for tumor model L1210 Leukemia (intraperitoneal) in B6D2F1 (BDF1) mice. The conditions noted are these: T/C endpoint: mean survival time, higher T/C = longer survival.

Each structure is given as a SMILES string. The list shows only some results of the screen, not a fair sample: its compounds were picked by chemical class. Not every dose and run of a compound is shown. T/C is the treated group as % of the vehicle group. Some doses have a count of surviving animals in place of a T/C: the source holds a T/C of zero for them, seemingly a mark for toxic or unscored doses. Counts of survivors are from the toxicity check (mostly the fifth day) where no day follows; animals may have died later. Schedule codes are those of the source, taken here to give the interval after Q, in days (D) or hours (H), and the number of doses after X. For survival time, this PubChem deposit counts one and a half times the control or more as active, and values a quarter to a half above the control carry no call in these data; other NCI protocols may use other cut-offs.

Take `N#Cc1[nH]cnc1/N=N\N(CCCl)CCCl`: the T/C runs as follows: (dose: 50.0 mg/kg/injection, schedule: Q04DX003 (ip), vehicle: other) 102 % of control; (dose: 100.0 mg/kg/injection, schedule: Q01DX001 (ip), vehicle: other) 106 % of control; (dose: 100.0 mg/kg/injection, schedule: Q01DX009 (ip), vehicle: saline with Tween-80) 104 % of control; (dose: 100.0 mg/kg/injection, schedule: Q04DX003 (ip), vehicle: other) 101 % of control; (dose: 200.0 mg/kg/injection, schedule: Q01DX001 (ip), vehicle: other) 101 % of control; (dose: 200.0 mg/kg/injection, schedule: Q01DX009 (ip), vehicle: saline with Tween-80) 107 % of control. Moreover, the T/C is, setting by setting: (dose: 200.0 mg/kg/injection, schedule: Q04DX003 (ip), vehicle: other) 106 % of control; (dose: 400.0 mg/kg/injection, schedule: Q01DX001 (ip), vehicle: other) 104 % of control; (dose: 400.0 mg/kg/injection, schedule: Q01DX009 (ip), vehicle: saline with Tween-80) 104 % of control; (dose: 400.0 mg/kg/injection, schedule: Q04DX003 (ip), vehicle: other) 108 % of control.

Regarding `NC(=O)c1[nH]cnc1/N=N/N(CCCl)CCCl.[Cl][Cu][Cl]`, the T/C (dose: 9.5 mg/kg/injection, schedule: Q01DX001 (ip), vehicle: saline) is 120 % of control; the T/C (dose: 19.0 mg/kg/injection, schedule: Q01DX001 (ip), vehicle: saline) is 100 % of control; the T/C (dose: 38.0 mg/kg/injection, schedule: Q01DX001 (ip), vehicle: saline) was 103 % of control. Besides, the survivor count is 0 of 6 (dose: 75.0 mg/kg/injection, schedule: Q01DX001 (ip), vehicle: saline); 0 of 6 (dose: 150.0 mg/kg/injection, schedule: Q01DX001 (ip), vehicle: saline); 0 of 6 (dose: 300.0 mg/kg/injection, schedule: Q01DX001 (ip), vehicle: saline).
